These are yes or no findings as the source states them, for the method shown. Binding seen in cells or lysates may run through a third protein. Here binding means that the protein was enriched with, or labelled near, the bait; the list need not be complete.
Target: HA-tagged RUNX1A (doxycycline-inducible, in CMK cells) (human) (UniProt Q01196)
Experiment: affinity purification with mass spectrometry

Protein sequences, listed by entry. Tags and fused reporters are not part of them. Lines headed by an entry give the natural chain unless they say otherwise; changes in a name come on top.
UniProt Q01196: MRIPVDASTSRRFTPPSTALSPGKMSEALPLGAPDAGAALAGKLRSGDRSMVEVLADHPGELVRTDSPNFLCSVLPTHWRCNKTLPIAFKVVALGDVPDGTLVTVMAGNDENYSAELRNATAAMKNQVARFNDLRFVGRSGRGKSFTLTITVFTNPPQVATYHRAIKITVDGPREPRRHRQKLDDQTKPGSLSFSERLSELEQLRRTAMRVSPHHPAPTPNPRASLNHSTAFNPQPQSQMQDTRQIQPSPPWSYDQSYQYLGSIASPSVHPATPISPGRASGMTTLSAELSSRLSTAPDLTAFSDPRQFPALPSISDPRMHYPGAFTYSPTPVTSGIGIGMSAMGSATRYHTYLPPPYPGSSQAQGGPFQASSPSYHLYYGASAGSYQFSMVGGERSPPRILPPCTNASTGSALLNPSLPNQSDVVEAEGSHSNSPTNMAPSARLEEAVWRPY
UniProt P61244: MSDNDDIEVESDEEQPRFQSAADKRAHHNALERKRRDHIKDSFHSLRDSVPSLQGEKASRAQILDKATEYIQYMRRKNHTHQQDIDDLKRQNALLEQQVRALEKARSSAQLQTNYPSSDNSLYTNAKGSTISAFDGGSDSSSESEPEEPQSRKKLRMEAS

binding: binds
Substance: MAX (in CMK cells) (from UniProt P61244 1-160)

Reference: publication doi:10.1101/2022.03.07.483334
